Source: the supplement of paper PMC10849652
The other results are listed elsewhere or left out.

Amino acid sequences for entries named in this document (tags omitted). A change or cut given only in a name is not applied to a line headed by its entry.
UniProt Q9BSL1: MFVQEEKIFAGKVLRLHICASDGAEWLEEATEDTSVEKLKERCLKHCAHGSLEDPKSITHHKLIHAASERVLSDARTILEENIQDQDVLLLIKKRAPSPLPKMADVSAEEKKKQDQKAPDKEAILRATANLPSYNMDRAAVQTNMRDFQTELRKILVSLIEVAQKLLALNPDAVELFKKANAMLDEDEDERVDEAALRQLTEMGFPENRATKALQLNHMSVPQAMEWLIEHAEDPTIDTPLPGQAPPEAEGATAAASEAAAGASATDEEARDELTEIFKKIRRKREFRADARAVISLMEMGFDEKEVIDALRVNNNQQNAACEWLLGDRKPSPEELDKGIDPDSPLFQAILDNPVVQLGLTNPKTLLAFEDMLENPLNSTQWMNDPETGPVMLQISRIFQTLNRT
UniProt Q969T4: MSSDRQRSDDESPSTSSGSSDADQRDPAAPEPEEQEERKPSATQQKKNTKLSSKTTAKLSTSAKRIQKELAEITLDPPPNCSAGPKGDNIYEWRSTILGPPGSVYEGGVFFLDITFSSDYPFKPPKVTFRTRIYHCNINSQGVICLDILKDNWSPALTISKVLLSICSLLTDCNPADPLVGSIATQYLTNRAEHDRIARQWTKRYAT
UniProt Q92575: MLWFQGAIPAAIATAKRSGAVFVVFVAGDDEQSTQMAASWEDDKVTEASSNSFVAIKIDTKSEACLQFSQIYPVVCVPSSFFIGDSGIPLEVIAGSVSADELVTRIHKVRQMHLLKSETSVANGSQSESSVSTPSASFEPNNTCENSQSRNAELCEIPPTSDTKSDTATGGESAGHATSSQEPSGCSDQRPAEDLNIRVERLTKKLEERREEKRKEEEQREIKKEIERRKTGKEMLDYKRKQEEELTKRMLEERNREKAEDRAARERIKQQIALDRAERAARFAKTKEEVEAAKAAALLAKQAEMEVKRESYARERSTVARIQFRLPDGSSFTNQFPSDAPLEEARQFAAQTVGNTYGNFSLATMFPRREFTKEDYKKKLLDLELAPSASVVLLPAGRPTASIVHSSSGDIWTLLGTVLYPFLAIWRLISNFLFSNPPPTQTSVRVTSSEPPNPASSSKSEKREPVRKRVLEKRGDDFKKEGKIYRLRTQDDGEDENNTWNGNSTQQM
UniProt Q9GZX9: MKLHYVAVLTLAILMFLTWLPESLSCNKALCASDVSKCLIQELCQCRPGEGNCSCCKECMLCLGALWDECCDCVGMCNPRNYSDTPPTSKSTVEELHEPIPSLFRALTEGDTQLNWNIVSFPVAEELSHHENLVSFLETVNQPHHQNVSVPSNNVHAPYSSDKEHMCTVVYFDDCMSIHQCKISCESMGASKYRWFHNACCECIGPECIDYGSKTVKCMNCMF
UniProt Q8TBC4: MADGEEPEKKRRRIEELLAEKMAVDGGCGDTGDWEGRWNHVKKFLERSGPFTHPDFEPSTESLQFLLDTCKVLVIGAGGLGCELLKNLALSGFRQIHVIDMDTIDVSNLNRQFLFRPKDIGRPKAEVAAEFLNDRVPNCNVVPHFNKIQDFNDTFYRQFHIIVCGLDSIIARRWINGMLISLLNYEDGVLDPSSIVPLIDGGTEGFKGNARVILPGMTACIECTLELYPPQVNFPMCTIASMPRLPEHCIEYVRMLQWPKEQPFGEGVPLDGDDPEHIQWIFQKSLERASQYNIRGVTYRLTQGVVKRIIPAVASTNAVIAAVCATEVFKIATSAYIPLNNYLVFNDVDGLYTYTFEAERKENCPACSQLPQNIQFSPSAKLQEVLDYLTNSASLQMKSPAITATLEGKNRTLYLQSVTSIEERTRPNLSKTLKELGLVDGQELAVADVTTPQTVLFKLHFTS
UniProt Q9Y5K5, whole entry, looked up: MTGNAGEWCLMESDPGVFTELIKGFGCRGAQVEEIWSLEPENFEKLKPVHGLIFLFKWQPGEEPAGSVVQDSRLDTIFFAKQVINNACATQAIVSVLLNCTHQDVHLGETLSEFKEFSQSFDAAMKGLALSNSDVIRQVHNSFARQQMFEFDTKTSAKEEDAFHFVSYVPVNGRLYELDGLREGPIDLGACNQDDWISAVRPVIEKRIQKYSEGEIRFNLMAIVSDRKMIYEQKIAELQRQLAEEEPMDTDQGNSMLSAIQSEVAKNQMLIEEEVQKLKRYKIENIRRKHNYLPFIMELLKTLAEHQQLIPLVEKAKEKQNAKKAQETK
UniProt Q96CW5, whole entry, looked up: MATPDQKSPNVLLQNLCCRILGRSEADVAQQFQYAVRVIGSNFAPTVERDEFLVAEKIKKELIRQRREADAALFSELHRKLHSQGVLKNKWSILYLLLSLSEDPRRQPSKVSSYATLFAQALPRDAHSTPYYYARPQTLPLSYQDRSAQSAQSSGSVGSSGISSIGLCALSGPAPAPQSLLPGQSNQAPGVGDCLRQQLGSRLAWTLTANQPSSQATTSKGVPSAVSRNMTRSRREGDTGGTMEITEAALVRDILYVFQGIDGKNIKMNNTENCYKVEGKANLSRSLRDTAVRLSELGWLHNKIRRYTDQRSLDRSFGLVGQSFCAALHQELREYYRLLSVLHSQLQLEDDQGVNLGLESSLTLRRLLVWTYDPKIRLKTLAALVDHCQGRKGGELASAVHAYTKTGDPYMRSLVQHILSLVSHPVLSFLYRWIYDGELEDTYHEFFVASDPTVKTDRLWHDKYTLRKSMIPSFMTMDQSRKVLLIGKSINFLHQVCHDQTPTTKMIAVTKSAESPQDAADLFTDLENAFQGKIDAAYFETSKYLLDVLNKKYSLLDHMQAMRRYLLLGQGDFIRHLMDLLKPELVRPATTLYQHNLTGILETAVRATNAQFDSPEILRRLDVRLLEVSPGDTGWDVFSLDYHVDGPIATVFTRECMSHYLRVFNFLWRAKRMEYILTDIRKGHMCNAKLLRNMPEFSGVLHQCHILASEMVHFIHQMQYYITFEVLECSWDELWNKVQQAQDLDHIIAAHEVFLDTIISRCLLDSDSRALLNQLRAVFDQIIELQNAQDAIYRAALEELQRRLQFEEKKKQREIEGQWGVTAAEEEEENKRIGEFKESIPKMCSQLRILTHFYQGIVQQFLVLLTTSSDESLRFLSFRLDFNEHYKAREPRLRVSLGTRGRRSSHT
UniProt O14530: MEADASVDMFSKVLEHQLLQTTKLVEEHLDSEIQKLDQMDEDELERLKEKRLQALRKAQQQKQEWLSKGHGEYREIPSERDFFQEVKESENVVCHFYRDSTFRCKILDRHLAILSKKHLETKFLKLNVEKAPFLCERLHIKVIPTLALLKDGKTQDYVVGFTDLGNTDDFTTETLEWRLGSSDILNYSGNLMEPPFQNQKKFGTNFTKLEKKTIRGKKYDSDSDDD
UniProt Q6IPR3: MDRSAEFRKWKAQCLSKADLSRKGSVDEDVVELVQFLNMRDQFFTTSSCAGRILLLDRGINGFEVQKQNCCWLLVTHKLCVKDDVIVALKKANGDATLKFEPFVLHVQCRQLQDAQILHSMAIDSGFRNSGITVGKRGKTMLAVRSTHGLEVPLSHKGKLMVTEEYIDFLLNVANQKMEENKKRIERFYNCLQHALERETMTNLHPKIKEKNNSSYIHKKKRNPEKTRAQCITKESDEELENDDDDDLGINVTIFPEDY
UniProt Q8WVN8: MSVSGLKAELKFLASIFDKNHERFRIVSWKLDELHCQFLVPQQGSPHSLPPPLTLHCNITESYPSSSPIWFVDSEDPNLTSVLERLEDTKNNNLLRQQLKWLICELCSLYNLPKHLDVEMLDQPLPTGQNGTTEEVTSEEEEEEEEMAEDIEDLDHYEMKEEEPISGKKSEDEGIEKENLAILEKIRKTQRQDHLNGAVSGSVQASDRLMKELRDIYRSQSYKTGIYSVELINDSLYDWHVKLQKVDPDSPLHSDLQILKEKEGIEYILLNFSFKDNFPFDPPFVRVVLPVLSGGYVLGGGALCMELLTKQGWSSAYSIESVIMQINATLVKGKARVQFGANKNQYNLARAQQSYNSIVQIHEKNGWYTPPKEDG
UniProt P51965: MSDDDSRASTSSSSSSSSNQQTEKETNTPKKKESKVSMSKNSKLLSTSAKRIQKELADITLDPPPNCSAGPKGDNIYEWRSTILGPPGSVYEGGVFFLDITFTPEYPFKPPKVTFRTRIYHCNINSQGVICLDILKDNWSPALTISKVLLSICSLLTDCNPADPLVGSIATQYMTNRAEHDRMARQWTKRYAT
UniProt Q15386: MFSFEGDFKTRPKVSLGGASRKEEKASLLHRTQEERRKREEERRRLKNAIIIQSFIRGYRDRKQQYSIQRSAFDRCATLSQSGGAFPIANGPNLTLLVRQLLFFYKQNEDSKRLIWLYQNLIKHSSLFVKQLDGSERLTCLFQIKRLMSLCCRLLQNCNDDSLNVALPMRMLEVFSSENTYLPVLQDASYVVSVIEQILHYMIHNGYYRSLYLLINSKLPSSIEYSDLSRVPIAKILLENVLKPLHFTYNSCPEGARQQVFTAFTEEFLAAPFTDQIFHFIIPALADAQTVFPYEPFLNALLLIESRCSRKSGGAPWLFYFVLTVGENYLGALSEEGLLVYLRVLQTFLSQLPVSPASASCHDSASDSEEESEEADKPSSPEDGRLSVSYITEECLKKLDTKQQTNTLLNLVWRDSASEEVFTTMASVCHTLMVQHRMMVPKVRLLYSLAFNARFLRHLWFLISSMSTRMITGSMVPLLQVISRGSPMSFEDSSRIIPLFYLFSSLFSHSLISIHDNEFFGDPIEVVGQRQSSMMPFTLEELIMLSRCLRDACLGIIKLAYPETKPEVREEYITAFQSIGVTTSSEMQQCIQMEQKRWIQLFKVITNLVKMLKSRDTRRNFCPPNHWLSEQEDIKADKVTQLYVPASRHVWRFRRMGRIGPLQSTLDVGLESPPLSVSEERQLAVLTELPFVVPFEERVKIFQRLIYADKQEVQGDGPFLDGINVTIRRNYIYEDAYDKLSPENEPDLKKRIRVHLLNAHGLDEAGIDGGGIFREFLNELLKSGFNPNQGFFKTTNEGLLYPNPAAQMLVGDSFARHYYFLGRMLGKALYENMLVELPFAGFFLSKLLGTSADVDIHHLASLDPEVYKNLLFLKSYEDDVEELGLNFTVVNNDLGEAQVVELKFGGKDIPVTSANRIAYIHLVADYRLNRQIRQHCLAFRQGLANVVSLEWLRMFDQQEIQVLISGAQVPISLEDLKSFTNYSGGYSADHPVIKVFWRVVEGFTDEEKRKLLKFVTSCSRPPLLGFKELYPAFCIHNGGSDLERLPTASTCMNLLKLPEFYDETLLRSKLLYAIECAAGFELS
UniProt O95155, whole entry, looked up: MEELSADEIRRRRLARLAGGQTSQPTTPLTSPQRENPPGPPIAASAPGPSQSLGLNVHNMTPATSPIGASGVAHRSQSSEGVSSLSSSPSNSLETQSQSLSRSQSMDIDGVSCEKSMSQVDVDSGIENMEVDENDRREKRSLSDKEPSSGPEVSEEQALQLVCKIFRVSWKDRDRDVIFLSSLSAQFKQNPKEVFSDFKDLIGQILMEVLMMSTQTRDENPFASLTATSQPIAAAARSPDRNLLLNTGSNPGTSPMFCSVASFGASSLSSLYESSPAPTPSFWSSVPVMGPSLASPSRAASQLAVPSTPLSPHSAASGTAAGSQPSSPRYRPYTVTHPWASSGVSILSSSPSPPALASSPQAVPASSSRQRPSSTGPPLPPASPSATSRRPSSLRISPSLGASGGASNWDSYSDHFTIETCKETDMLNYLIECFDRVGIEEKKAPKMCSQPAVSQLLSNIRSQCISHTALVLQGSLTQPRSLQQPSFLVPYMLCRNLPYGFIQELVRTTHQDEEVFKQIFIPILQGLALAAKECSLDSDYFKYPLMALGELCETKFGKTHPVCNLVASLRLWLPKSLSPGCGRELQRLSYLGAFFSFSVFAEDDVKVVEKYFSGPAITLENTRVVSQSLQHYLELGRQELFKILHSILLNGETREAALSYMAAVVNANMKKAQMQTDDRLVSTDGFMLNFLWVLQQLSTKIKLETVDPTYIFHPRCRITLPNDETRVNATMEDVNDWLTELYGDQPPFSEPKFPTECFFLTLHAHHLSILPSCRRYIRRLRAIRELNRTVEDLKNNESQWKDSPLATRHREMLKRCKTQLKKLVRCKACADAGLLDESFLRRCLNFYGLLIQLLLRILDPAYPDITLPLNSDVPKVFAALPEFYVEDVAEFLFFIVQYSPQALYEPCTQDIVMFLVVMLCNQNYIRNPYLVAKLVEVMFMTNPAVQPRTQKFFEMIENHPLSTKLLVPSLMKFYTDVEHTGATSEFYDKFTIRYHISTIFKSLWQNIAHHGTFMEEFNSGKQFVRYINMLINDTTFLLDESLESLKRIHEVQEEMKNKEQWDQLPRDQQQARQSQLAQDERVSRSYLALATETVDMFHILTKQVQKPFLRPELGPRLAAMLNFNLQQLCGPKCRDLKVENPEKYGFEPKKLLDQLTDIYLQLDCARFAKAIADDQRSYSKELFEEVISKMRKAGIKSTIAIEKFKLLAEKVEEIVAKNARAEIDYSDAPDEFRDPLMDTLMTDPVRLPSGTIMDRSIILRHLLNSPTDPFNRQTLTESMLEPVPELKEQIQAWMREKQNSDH

What was measured:
Test in all cases: log2 fold change, soluble protein after heating vs DMSO (PISA); higher = thermal stabilisation; K562 lysate, 10 uM; active = over 0.2 and 3.5 SD of the protein, either way, in both replicates (recomputed)
erlotinib = compound: C#Cc1cccc(Nc2ncnc3cc(OCCOC)c(OCCOC)cc23)c1 [erlotinib]
Outline: (§1)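 To prepare the extract, K562 pellets were dounce-homogenised in PBS pH 7.4 with 1 mM MgCl2, giving crude material at 1 mg/mL protein. This was treated with 10 μM compound for 30 min, then heated in aliquots for 3 min over 48°C-58°C before pooling and addition of NP-40 to 0.5% at 4°C. Centrifugation at 21,000xg for 90 min left soluble protein in the supernatant, which TMTpro 16plex LC-MS/MS quantified with equalised channel sums. Results are log-two fold changes in thermal stability compared with solvent controls, from duplicates.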

[1] = compound: C/C(=N\NC(=O)C1=CC(=CC=C1)S(=O)(=O)N2CCOCC2)/C3=C(C=CC(=C3)Cl)O
Outline: as §1

[2] = compound: C1=CC(=CC=C1C2=NC3=C(N2)C=C(C=C3)C(=O)N)OC4=CC=C(C=C4)Cl
Outline: as §1

[3] = compound: C1=CC2=C(C=CC(=C2)/C=C\3/C(=O)NC(=NCC4=CC=CS4)S3)N=C1
Outline: as §1

[4] = compound: C1=CC2=NC=CN=C2C=C1/C=C/3\C(=O)NC(=O)S3
Outline: as §1

[5] = compound: C1=CC=C(C=C1)C2=NC(=C(N2)C3=CC=NC=C3)C4=CC(=C(C=C4)Cl)O
Outline: as §1

[6] = compound: C1=CC=C2C(=C1)C3=NNC4=CC=CC(=C43)C2=O
Outline: as §1

[7] = compound: C1CCN(C1)C(=O)NC2=CC=CC(=C2)NC3=NC=C(C(=N3)NCCC4=CN=CN4)Br
Outline: as §1

[8] = compound: C1CN(CCC1(CC2=CC=C(C=C2)Cl)N)C3=NC=NC4=C3C=CN4
Outline: as §1

IRAK-1-4 Inhibitor I = compound: C1COCCN1CCN2C3=CC=CC=C3N=C2NC(=O)C4=CC(=CC=C4)[N+](=O)[O-] [IRAK-1-4 Inhibitor I]
Outline: as §1

Measured: log2 fold change

UBAC1 (UniProt Q9BSL1)
inactive: erlotinib -0.012 | [1] -0.084 | [2] -0.011 | [3] -0.005 | [4] 0.002 | [5] -0.002 | [6] -0.002 | [7] -0.014 | [8] -0.007 | IRAK-1-4 Inhibitor I 0.004

UBA1 (UniProt P22314)
inactive: erlotinib 0.034 | [1] 0.017 | [2] -0.022 | [3] 0.003 | [4] 0.004 | [5] 0.002 | [6] -0.044 | [7] 0 | [8] 0.02 | IRAK-1-4 Inhibitor I -0.013

UBE2E3 (UniProt Q969T4)
inactive: erlotinib -0.027 | [1] -0.024 | [2] 0.024 | [3] 0.011 | [4] -0.04 | [5] -0.012 | [6] -0.021 | [7] -0.051 | [8] 0.02 | IRAK-1-4 Inhibitor I 0.029

TXLNA (UniProt P40222)
inactive: erlotinib -0.005 | [1] -0.003 | [2] 0.028 | [3] -0.006 | [4] 0.01 | [5] 0.035 | [6] 0.01 | [7] 0.032 | [8] 0.006 | IRAK-1-4 Inhibitor I 0.004

UBAC2 (UniProt Q8NBM4)
inactive: erlotinib 0.024 | [1] 0.015 | [2] -0.039 | [3] 0 | [4] -0.074 | [5] 0.038 | [6] 0.011 | [7] -0.257 | [8] -0.009 | IRAK-1-4 Inhibitor I 0.068

UBXN4 (UniProt Q92575)
inactive: erlotinib -0.065 | [1] -0.007 | [2] 0.042 | [3] -0.037 | [4] -0.057 | [5] -0.02 | [6] 0.029 | [7] -0.015 | [8] -0.022 | IRAK-1-4 Inhibitor I 0.007

TWSG1 (UniProt Q9GZX9)
inactive: erlotinib 0.026 | [1] 0.047 | [2] -0.016 | [3] -0.008 | [4] -0.055 | [5] -0.031 | [6] 0.084 | [7] 0.011 | [8] 0.012 | IRAK-1-4 Inhibitor I 0.025

UBA3 (UniProt Q8TBC4)
inactive: erlotinib 0 | [1] 0.033 | [2] 0 | [3] -0.023 | [4] 0.003 | [5] 0.016 | [6] -0.035 | [7] -0.008 | [8] 0.021 | IRAK-1-4 Inhibitor I 0.014

UBAP1 (UniProt Q9NZ09)
inactive: erlotinib -0.044 | [1] -0.04 | [2] 0.054 | [3] -0.003 | [4] 0.024 | [5] 0.088 | [6] 0.044 | [7] 0.046 | [8] 0.004 | IRAK-1-4 Inhibitor I 0.07

UBAP2L isoform 5 (UniProt Q14157)
inactive: erlotinib -0.021 | [1] -0.019 | [2] 0.035 | [3] 0.008 | [4] 0.027 | [5] -0.184 | [6] 0.065 | [7] 0.009 | [8] -0.023 | IRAK-1-4 Inhibitor I 0.065

TWF2 (UniProt Q6IBS0)
inactive: erlotinib -0.007 | [1] -0.001 | [2] 0.029 | [3] 0.002 | [4] -0.019 | [5] -0.008 | [6] 0.006 | [7] -0.007 | [8] 0.011 | IRAK-1-4 Inhibitor I 0.002

UCHL5 isoform 3 (UniProt Q9Y5K5)
inactive: erlotinib -0.015 | [1] -0.012 | [2] 0.015 | [3] -0.018 | [4] 0.01 | [5] -0.005 | [6] 0.001 | [7] 0 | [8] -0.014 | IRAK-1-4 Inhibitor I -0.018

UBP1 (UniProt Q9NZI7)
inactive: erlotinib 0.018 | [1] -0.109 | [2] -0.095 | [3] 0.048 | [4] 0.016 | [5] 0.01 | [6] 0.032 | [7] -0.034 | [8] -0.017 | IRAK-1-4 Inhibitor I 0.029

TUBGCP3 (UniProt Q96CW5)
inactive: erlotinib -0.035 | [1] 0.021 | [2] -0.054 | [3] 0.044 | [4] 0.02 | [5] -0.039 | [6] 0.012 | [7] -0.044 | [8] -0.019 | IRAK-1-4 Inhibitor I -0.054

TXNDC9 (UniProt O14530)
inactive: erlotinib -0.007 | [1] 0.052 | [2] 0.007 | [3] -0.01 | [4] -0.006 | [5] -0.008 | [6] 0.012 | [7] 0 | [8] 0.017 | IRAK-1-4 Inhibitor I -0.041

TYW3 (UniProt Q6IPR3)
inactive: erlotinib -0.002 | [1] 0.003 | [2] 0.063 | [3] -0.032 | [4] -0.008 | [5] 0.002 | [6] -0.07 | [7] -0.054 | [8] 0.014 | IRAK-1-4 Inhibitor I 0.018

TUFM (UniProt P49411)
inactive: erlotinib 0.026 | [1] 0.023 | [2] 0.016 | [3] 0.01 | [4] 0.049 | [5] 0.005 | [6] -0.053 | [7] 0 | [8] -0.006 | IRAK-1-4 Inhibitor I -0.006

UBL7 (UniProt Q96S82)
inactive: erlotinib -0.011 | [1] 0.076 | [2] -0.066 | [3] 0.022 | [4] -0.032 | [5] 0.006 | [6] -0.016 | [7] 0.057 | [8] 0.144 | IRAK-1-4 Inhibitor I -0.002

TWF1 (UniProt Q12792)
inactive: erlotinib -0.047 | [1] 0.037 | [2] -0.009 | [3] -0.044 | [4] 0 | [5] -0.047 | [6] -0.008 | [7] 0.023 | [8] 0.002 | IRAK-1-4 Inhibitor I 0.059

UBC (UniProt P0CG48)
inactive: erlotinib 0.028 | [1] -0.012 | [2] -0.003 | [3] -0.032 | [4] -0.012 | [5] -0.027 | [6] -0.018 | [7] 0.02 | [8] 0.02 | IRAK-1-4 Inhibitor I -0.011

TUBB3 (UniProt Q13509)
inactive: erlotinib 0.025 | [1] -0.089 | [2] 0.016 | [3] -0.004 | [4] 0.001 | [5] -0.019 | [6] -0.025 | [7] 0.018 | [8] 0.03 | IRAK-1-4 Inhibitor I 0.006

UBE2B (UniProt P63146)
inactive: erlotinib 0.004 | [1] 0.103 | [2] 0.054 | [3] 0.027 | [4] 0.002 | [5] -0.018 | [6] 0.033 | [7] 0.109 | [8] 0.017 | IRAK-1-4 Inhibitor I 0.01

UBA5 (UniProt Q9GZZ9)
inactive: erlotinib 0.004 | [1] 0.025 | [2] -0.011 | [3] 0.017 | [4] 0.015 | [5] -0.016 | [6] -0.014 | [7] 0.026 | [8] -0.008 | IRAK-1-4 Inhibitor I -0.026

UBE2Q2 (UniProt Q8WVN8)
inactive: erlotinib -0.144 | [1] -0.187 | [2] 0.056 | [3] 0.132 | [4] -0.109 | [5] 0.035 | [6] -0.127 | [7] -0.001 | [8] -0.119 | IRAK-1-4 Inhibitor I 0.281

UBE3A (UniProt Q05086)
inactive: erlotinib 0.024 | [1] -0.025 | [2] 0.008 | [3] -0.002 | [4] -0.016 | [5] -0.01 | [6] -0.006 | [7] -0.015 | [8] 0.013 | IRAK-1-4 Inhibitor I 0.029

UBE2E1 (UniProt P51965)
inactive: erlotinib 0.023 | [1] 0.014 | [2] -0.159 | [3] 0.066 | [4] -0.018 | [5] -0.034 | [6] 0.151 | [7] 0.026 | [8] -0.071 | IRAK-1-4 Inhibitor I -0.022

UBE3D (UniProt Q7Z6J8)
inactive: erlotinib 0.06 | [1] 0.039 | [2] 0.062 | [3] -0.021 | [4] 0.006 | [5] -0.002 | [6] 0.029 | [7] -0.041 | [8] 0.023 | IRAK-1-4 Inhibitor I 0.072

UBE3C (UniProt Q15386)
inactive: erlotinib 0.035 | [1] -0.061 | [2] -0.067 | [3] 0.011 | [4] -0.036 | [5] -0.01 | [6] -0.022 | [7] 0.027 | [8] 0.049 | IRAK-1-4 Inhibitor I 0

Reprinted at random: 2 records from the list
UBE2Q2 (UniProt Q8WVN8)
inactive: erlotinib -0.144 | [1] -0.187 | [2] 0.056 | [3] 0.132 | [4] -0.109 | [5] 0.035 | [6] -0.127 | [7] -0.001 | [8] -0.119 | IRAK-1-4 Inhibitor I 0.281

UBE2E1 (UniProt P51965)
inactive: erlotinib 0.023 | [1] 0.014 | [2] -0.159 | [3] 0.066 | [4] -0.018 | [5] -0.034 | [6] 0.151 | [7] 0.026 | [8] -0.071 | IRAK-1-4 Inhibitor I -0.022

(list continues)

UBE4B isoform 4 (UniProt O95155)
inactive: erlotinib 0.025 | [1] 0.012 | [2] 0.001 | [3] 0.013 | [4] 0.021 | [5] -0.008 | [6] -0.039 | [7] -0.003 | [8] 0.003 | IRAK-1-4 Inhibitor I 0.018

UBR5 (UniProt O95071)
inactive: erlotinib 0.005 | [1] -0.029 | [2] -0.024 | [3] -0.002 | [4] -0.012 | [5] -0.013 | [6] -0.033 | [7] -0.001 | [8] 0.007 | IRAK-1-4 Inhibitor I 0.001
